5 molecules from PMC10808971 can be followed below.

Amino acid sequences for entries named in this document (tags omitted). A change or cut given only in a name is not applied to a line headed by its entry.
UniProt Q14145: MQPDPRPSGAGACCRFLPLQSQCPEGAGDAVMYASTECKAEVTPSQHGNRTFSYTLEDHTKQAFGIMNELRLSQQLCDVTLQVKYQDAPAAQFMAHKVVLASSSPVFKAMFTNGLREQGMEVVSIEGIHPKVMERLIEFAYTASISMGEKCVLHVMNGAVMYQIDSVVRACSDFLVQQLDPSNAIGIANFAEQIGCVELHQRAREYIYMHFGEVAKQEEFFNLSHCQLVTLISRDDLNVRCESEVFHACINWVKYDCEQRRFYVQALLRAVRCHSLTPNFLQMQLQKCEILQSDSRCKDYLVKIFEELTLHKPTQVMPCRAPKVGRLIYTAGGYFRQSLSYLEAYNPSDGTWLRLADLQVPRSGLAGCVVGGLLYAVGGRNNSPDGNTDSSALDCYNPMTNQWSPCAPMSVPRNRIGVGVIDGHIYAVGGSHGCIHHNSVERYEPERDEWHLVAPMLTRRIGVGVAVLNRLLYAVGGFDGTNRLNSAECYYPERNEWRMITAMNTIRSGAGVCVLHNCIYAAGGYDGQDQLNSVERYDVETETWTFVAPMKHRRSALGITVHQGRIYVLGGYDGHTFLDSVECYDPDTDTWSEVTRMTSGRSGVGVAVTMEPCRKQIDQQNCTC
UniProt Q8IXI2: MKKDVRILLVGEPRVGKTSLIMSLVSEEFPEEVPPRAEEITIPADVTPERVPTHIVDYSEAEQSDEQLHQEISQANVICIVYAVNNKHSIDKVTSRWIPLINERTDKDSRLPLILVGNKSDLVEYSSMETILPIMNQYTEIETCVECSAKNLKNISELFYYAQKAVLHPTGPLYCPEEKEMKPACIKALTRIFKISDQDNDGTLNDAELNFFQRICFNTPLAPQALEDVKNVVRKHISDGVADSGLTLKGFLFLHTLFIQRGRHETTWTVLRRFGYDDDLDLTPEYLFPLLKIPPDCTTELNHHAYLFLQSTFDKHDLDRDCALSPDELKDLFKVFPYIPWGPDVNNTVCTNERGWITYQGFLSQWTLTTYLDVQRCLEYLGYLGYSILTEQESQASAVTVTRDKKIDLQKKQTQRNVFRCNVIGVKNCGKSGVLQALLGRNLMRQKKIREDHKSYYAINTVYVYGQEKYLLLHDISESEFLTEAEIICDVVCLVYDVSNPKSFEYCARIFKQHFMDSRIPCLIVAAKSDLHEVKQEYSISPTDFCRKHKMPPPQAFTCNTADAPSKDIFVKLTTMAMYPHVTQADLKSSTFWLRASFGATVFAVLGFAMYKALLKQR
UniProt Q9H2G2: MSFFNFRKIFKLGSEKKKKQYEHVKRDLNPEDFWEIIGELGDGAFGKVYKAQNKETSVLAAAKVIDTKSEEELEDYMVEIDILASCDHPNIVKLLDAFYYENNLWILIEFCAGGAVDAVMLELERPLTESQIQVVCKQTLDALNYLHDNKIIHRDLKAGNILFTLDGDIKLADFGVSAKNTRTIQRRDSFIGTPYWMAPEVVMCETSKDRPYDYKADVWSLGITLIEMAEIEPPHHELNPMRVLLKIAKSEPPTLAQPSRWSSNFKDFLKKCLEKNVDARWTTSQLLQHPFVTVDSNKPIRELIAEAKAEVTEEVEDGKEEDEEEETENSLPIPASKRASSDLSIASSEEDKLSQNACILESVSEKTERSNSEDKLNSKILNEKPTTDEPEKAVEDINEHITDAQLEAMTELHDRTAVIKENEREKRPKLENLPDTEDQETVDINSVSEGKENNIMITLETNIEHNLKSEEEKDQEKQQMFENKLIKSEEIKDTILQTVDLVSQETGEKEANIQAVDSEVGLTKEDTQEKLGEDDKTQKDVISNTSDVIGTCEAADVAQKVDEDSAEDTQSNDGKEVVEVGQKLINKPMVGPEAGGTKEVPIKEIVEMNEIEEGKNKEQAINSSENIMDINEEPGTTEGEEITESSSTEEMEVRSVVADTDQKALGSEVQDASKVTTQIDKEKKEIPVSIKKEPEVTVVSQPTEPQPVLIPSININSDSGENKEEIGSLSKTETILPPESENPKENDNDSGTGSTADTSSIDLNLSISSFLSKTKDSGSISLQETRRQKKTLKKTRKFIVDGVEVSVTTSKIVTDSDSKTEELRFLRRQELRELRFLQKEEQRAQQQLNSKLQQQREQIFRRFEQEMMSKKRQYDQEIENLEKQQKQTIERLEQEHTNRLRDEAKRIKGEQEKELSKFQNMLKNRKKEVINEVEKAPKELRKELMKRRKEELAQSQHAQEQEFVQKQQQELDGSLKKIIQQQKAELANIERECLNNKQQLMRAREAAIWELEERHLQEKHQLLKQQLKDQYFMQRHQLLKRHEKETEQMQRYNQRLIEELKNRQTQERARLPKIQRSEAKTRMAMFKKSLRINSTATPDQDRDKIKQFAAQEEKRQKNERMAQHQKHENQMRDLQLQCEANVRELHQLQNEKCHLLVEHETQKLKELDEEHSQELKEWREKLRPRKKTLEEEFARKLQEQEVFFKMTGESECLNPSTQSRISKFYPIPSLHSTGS

No constants are given. Whether binding was seen depends on the method and setting. In cells and extracts the contact can be indirect. A yes stands for co-enrichment or nearness to the bait. Other partners may have been found.

Holding throughout (assay): affinity purification with mass spectrometry; HA-Strep-KEAP1 (wt, R320Q, R470C) captured on Strep-Tactin sepharose from lysates of doxycycline-induced TREx-Hek-293T cells (50 mM Hepes pH 8.0, 5 mM EDTA, 150 mM NaCl, 50 mM NaF, 0.5 % IGEPAL), eluted with biotin, LC-MS/MS, SAINTexpress; GFP cells as mock
Assay [1] concerns the target HA- and Strep-tagged KEAP1 R470C (human) (UniProt Q14145).
For assay [2], the target named is HA- and Strep-tagged KEAP1 R320Q (human) (UniProt Q14145).
In assay [3] the target is HA- and Strep-tagged KEAP1 wild type (Kelch-like ECH-associated protein 1) (human) (UniProt Q14145).

Regarding “Baculoviral IAP repeat-containing protein 6 (BIRC6), endogenous in TREx-Hek-293T (from UniProt Q9NR09 1-4857)”, the binding result in assay [1] and in assay [2] was “binds” throughout.

For the molecule “Ras homolog family member T1 (RHOT1), endogenous in TREx-Hek-293T (from UniProt Q8IXI2 1-618)”, the binding entry in assay [1] and in assay [2] was “binds” each time.

As for “STE20 like kinase (SLK), endogenous in TREx-Hek-293T (from UniProt Q9H2G2 1-1235)”, the binding result in assay [3], in assay [1] and in assay [2] was “binds” each time.

B1: MCC regulator of WNT signaling pathway (MCC), endogenous in TREx-Hek-293T (protein, UniProt P23508 1-829)
chain: MNSGVAMKYGNDSSAELSELHSAALASLKGDIVELNKRLQQTERERDLLEKKLAKAQCEQSHLMREHEDVQERTTLRYEERITELHSVIAELNKKIDRLQGTTIREEDEYSELRSELSQSQHEVNEDSRSMDQDQTSVSIPENQSTMVTADMDNCSDLNSELQRVLTGLENVVCGRKKSSCSLSVAEVDKHIEQLTTASEHCDLAIKTVEEIEGVLGRDLYPNLAEERSRWEKELAGLREENESLTAMLCSKEEELNRTKATMNAIREERDRLRRRVRELQTRLQSVQATGPSSPGRLTSTNRPINPSTGELSTSSSSNDIPIAKIAERVKLSKTRSESSSSDRPVLGSEISSIGVSSSVAEHLAHSLQDCSNIQEIFQTLYSHGSAISESKIREFEVETERLNSRIEHLKSQNDLLTITLEECKSNAERMSMLVGKYESNATALRLALQYSEQCIEAYELLLALAESEQSLILGQFRAAGVGSSPGDQSGDENITQMLKRAHDCRKTAENAAKALLMKLDGSCGGAFAVAGCSVQPWESLSSNSHTSTTSSTASSCDTEFTKEDEQRLKDYIQQLKNDRAAVKLTMLELESIHIDPLSYDVKPRGDSQRLDLENAVLMQELMAMKEEMAELKAQLYLLEKEKKALELKLSTREAQEQAYLVHIEHLKSEVEEQKEQRMRSLSSTSSGSKDKPGKECADAASPALSLAELRTTCSENELAAEFTNAIRREKKLKARVQELVSALERLTKSSEIRHQQSAEFVNDLKRANSNLVAAYEKAKKKHQNKLKKLESQMMAMVERHETQVRMLKQRIALLEEENSRPHTNETSL
Take B1: the binding result in assay [1] and in assay [2] was “binds” in each case.

B2: Dipeptidyl peptidase 3 (DPP3), endogenous in TREx-Hek-293T (protein, UniProt Q9NY33 1-737)
chain: MADTQYILPNDIGVSSLDCREAFRLLSPTERLYAYHLSRAAWYGGLAVLLQTSPEAPYIYALLSRLFRAQDPDQLRQHALAEGLTEEEYQAFLVYAAGVYSNMGNYKSFGDTKFVPNLPKEKLERVILGSEAAQQHPEEVRGLWQTCGELMFSLEPRLRHLGLGKEGITTYFSGNCTMEDAKLAQDFLDSQNLSAYNTRLFKEVDGEGKPYYEVRLASVLGSEPSLDSEVTSKLKSYEFRGSPFQVTRGDYAPILQKVVEQLEKAKAYAANSHQGQMLAQYIESFTQGSIEAHKRGSRFWIQDKGPIVESYIGFIESYRDPFGSRGEFEGFVAVVNKAMSAKFERLVASAEQLLKELPWPPTFEKDKFLTPDFTSLDVLTFAGSGIPAGINIPNYDDLRQTEGFKNVSLGNVLAVAYATQREKLTFLEEDDKDLYILWKGPSFDVQVGLHELLGHGSGKLFVQDEKGAFNFDQETVINPETGEQIQSWYRSGETWDSKFSTIASSYEECRAESVGLYLCLHPQVLEIFGFEGADAEDVIYVNWLNMVRAGLLALEFYTPEAFNWRQAHMQARFVILRVLLEAGEGLVTITPTTGSDGRPDARVRLDRSKIRSVGKPALERFLRRLQVLKSTGDVAGGRALYEGYATVTDAPPECFLTLRDTVLLRKESRKLIVQPNTRLEGSDVQLLEYEASAAGLIRSFSERFPEDGPELEEILTQLATADARFWKGPSEAPSGQA
As for B2, the binding entry in assay [3], in assay [1] and in assay [2] was “binds” in each case.
